Amino acid sequences for entries named in this document (tags omitted). Residues count along the entry.
UniProt P25025: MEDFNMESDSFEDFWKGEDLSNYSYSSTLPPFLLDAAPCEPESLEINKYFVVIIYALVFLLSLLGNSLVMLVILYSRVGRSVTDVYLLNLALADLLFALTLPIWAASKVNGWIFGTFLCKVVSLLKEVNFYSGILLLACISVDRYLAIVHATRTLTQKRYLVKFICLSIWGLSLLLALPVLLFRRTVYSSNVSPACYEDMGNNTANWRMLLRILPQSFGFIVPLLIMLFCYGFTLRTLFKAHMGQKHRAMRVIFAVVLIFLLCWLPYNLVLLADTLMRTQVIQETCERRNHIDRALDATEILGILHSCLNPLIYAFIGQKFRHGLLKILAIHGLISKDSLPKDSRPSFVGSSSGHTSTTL
UniProt P50552: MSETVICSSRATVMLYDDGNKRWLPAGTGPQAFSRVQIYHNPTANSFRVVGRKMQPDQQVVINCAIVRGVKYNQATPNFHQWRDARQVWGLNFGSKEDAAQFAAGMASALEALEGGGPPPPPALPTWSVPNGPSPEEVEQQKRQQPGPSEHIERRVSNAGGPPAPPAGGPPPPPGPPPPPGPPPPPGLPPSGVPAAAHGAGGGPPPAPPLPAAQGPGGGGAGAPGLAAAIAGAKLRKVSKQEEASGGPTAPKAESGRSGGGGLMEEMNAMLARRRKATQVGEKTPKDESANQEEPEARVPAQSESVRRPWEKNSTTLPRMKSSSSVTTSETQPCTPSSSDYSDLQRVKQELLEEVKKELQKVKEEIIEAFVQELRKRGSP
UniProt P46940: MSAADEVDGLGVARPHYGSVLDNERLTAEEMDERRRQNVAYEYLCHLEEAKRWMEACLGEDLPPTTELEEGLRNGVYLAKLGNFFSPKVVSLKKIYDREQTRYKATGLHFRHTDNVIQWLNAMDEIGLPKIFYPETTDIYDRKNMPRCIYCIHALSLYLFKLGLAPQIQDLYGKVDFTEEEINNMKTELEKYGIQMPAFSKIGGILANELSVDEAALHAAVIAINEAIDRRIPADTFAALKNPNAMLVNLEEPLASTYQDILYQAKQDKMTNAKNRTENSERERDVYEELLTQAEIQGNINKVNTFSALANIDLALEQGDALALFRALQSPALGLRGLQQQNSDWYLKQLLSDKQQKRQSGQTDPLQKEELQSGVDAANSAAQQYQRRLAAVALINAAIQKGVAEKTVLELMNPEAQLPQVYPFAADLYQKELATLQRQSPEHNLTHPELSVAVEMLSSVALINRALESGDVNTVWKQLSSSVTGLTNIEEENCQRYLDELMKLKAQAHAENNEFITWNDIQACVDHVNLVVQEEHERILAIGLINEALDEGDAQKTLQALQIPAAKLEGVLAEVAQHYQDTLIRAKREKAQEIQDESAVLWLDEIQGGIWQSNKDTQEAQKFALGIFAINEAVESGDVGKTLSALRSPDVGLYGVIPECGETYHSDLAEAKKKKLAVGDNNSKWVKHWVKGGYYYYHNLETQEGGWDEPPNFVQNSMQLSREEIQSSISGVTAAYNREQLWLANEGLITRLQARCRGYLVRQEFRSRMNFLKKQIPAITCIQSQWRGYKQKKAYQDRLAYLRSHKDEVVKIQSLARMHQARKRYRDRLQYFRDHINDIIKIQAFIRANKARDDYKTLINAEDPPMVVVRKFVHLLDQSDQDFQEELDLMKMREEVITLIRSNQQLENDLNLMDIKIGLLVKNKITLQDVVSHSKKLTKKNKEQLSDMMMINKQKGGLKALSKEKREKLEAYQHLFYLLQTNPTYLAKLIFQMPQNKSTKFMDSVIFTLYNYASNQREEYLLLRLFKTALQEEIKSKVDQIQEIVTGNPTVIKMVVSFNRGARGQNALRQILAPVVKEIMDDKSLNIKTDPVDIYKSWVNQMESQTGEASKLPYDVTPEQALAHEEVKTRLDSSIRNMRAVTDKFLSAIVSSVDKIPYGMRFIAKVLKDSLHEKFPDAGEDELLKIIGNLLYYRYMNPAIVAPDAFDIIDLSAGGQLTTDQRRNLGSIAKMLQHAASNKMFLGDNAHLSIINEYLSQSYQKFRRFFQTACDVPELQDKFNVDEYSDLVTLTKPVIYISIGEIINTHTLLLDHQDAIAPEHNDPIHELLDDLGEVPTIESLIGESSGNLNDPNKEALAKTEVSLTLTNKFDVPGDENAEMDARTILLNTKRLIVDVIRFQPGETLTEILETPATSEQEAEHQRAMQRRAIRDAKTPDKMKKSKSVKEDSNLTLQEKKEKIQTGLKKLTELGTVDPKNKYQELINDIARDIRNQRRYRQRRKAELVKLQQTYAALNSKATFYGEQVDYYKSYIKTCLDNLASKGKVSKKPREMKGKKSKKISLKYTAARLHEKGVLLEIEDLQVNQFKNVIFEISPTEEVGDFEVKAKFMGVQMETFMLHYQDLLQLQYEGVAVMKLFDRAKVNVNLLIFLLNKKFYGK
UniProt P25787: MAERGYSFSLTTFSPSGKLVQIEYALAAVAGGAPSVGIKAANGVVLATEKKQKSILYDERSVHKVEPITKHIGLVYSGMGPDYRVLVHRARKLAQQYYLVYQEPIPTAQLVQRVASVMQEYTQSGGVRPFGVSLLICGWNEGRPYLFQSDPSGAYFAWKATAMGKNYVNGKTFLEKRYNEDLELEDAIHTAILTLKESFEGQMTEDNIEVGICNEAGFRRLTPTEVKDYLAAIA
UniProt Q00610: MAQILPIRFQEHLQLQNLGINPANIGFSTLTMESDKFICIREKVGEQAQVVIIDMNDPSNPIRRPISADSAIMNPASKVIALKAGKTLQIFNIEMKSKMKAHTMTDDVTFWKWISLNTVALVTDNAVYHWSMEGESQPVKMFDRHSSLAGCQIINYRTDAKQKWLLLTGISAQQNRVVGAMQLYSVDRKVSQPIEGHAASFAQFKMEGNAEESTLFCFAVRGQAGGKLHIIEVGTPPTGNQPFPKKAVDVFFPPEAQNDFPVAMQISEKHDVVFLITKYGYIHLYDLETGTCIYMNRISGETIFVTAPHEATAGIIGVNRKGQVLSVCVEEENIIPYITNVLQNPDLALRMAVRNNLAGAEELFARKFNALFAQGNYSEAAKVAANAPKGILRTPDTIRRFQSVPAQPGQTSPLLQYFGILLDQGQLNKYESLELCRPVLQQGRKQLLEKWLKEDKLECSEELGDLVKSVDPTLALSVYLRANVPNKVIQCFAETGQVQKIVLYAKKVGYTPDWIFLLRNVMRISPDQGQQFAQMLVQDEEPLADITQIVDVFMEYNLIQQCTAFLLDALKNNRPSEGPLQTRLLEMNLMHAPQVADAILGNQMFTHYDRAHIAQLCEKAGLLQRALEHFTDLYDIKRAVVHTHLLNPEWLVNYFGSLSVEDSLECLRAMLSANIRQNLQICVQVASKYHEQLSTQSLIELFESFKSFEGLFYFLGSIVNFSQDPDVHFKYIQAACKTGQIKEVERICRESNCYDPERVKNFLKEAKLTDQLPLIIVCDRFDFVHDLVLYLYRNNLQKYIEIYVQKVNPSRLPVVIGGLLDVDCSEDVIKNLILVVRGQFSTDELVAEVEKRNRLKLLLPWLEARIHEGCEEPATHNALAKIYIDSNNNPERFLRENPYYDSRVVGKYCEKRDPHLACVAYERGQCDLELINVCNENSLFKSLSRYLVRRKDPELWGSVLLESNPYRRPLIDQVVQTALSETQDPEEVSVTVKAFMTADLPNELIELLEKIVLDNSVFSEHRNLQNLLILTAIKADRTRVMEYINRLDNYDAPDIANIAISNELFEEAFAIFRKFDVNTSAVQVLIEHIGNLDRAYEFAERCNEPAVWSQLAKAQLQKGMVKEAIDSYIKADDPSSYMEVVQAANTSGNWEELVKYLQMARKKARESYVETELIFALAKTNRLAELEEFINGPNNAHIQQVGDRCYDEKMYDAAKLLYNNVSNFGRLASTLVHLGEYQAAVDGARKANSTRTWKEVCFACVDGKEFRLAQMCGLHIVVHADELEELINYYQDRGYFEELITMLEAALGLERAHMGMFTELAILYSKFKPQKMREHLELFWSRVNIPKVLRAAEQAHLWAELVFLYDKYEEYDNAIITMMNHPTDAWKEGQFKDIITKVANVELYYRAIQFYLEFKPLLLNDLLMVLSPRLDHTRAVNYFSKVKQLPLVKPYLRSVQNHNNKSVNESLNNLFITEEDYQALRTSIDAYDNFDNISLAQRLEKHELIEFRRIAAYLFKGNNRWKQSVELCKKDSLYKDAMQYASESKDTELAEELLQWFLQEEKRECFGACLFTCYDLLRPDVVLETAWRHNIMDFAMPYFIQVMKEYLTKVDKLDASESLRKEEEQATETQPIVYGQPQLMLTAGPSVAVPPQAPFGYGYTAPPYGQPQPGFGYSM
UniProt P06396, residues 28-782: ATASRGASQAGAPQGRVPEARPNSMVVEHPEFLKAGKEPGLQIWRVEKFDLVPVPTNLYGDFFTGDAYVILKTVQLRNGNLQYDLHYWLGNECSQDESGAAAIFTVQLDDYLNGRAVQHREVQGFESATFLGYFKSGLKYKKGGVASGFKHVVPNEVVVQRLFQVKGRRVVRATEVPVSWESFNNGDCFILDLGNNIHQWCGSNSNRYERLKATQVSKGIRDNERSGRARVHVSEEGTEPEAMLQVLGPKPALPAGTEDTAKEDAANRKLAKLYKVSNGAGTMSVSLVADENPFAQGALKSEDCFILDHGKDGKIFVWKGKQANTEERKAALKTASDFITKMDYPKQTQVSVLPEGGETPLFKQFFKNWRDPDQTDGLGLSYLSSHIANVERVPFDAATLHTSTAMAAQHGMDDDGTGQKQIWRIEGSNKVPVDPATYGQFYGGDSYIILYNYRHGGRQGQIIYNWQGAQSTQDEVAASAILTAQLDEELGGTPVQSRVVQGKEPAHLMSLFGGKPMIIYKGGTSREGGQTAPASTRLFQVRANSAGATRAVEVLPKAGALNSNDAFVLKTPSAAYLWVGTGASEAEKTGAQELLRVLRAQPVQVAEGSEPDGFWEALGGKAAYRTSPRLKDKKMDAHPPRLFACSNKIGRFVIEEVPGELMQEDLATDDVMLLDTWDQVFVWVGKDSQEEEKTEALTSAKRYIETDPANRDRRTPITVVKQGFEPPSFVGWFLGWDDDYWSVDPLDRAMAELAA
UniProt P63104: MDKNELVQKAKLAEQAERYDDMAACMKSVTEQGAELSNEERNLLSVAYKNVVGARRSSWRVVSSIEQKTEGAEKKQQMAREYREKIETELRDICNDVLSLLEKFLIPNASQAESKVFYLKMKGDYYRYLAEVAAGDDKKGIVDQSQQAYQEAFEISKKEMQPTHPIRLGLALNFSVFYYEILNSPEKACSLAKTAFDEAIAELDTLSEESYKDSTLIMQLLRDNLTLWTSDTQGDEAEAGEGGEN
UniProt Q9H0B6: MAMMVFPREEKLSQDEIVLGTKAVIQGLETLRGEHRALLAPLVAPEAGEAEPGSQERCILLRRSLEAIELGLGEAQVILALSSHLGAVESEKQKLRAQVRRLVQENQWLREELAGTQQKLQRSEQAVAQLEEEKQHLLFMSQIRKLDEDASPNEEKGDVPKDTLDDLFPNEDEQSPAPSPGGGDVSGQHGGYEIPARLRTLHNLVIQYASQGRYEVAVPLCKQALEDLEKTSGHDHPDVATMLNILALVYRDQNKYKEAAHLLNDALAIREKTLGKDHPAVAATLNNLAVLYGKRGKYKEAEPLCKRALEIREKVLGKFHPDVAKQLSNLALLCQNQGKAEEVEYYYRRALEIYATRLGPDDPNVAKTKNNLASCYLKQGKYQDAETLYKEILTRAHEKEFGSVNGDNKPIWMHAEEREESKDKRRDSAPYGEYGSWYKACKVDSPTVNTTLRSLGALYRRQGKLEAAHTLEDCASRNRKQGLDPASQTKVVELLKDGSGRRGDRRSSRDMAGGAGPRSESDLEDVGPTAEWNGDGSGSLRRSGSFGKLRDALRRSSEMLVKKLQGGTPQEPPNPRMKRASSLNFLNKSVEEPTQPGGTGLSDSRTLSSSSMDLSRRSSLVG

According to publication PMC3158102:

Target: CXCR2 stably over-expressed in differentiated HL-60 cells (UniProt P25025)
Test: affinity purification with mass spectrometry; anti-CXCR2 rabbit antibody coupled to Sepharose; lysates of differentiated HL-60 cells stably expressing CXCR2, vehicle or 100 ng/ml CXCL8 for 1 min; lysis buffer 50 mM Tris-HCl pH 7.5, 0.05% Triton X-100, 300 mM NaCl; normal rabbit IgG beads as mock, its identifications subtracted; LC/MS/MS

Substance	binding
Vasodilator-stimulated phosphoprotein (VASP) (from UniProt P50552 1-380)	binds
IQ motif containing GTPase activating protein 1 (IQGAP1), endogenous in differentiated HL-60 cells (from UniProt P46940 1-1657)	binds
PSMA2 (proteosome subunit) (from UniProt P25787 1-234)	binds
Clathrin heavy chain 1 (from UniProt Q00610 1-1675)	binds
Gelsolin (from UniProt P06396 28-782)	binds
YWHAZ (14-3-3 zeta) (from UniProt P63104 1-245)	binds

Continued, values first:

binding	Substance
binds	Kinesin light chain-2 (from UniProt Q9H0B6 1-622)
binds	Valosin-containing protein (VCP) (from UniProt P55072 1-806)
binds	Dynein heavy chain 5 (from UniProt Q8TE73 1-4624)
binds	Talin 1 (from UniProt Q9Y490 1-2541)

No constants are given. Whether binding was seen depends on the method and setting. Binding seen in cells or lysates may run through a third protein. These calls come from enrichment with a bait or labelling near it, and not all partners need be listed.
